In patent US20050020854A1, “Alkyl(en)ylglycerinether carboxylic acids” (priority 2001, published 2005):

Columns and labels:
Rotor foam test = format: physicochemical; details: 40° C., pH 6, 0.5 g/l
[1] = Foam volume to DIN Standard EN 12728 (beating with perforated plate); format: physicochemical; details: 0.1 g active substance/l, 40° C., 0° dH, pH 6.0

Substance	rotor foam (Rotor foam test; 30 s, 0° dH)	rotor foam (Rotor foam test; 30 s, 16° dH)	rotor foam (Rotor foam test; 60 s, 0° dH)	rotor foam (Rotor foam test; 60 s, 16° dH)	rotor foam (Rotor foam test; 90 s, 0° dH)	rotor foam (Rotor foam test; 90 s, 16° dH)	rotor foam (Rotor foam test; 120 s, 0° dH)	rotor foam (Rotor foam test; 120 s, 16° dH)	Foam height ([1]; after 5 mins.)	Foam height ([1]; after 10 mins.)	Foam height ([1]; after 20 mins.)	Foam height ([1]; immediately after beating)
mono-C12-glycerol ether carboxylic acid [Example 1]	110 mL	80 mL	150 mL	90 mL	180 mL	90 mL	205 mL	90 mL	190 mL	180 mL	180 mL	190 mL
mono-C12-glycerol ether+4EO ether carboxylic acid [Example 2]	280 mL	220 mL	450 mL	350 mL	680 mL	470 mL	850 mL	520 mL				
